# Screening data, single-dose tests

Data taken from ChEMBL document CHEMBL3988442, “University of Dundee, Small-Polar-MMV Screening Library” (2021).

The filed quantity is “Percent Effect” (%). The record does not define 0% and 100%; most values in the screen are far below 50% and negative numbers occur (in some assays of this library far below -100). Compounds were drawn at random from those tested, without regard to their results.

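Whole-parasite assay of Trypanosoma brucei over 72 hours; the read-out is not stated. Compounds at 30 µM. Direction is inferred from retests: higher values go with stronger inhibition. Values scatter widely below zero; nearly all retest evidence comes from the higher of the two concentrations used. Size under these conditions: about 64,000 compounds, about 940 of them at 50% or above in at least one test.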

Compound: CN(C)CCC1CCN(c2cc(N3CCCC3CO)ncn2)CC1 (centres undefined)
percent effect: -62.29

Compound: CCN1CCC2(CN(C(C)=O)CC23CCN(CC2CC2)CC3)C1=O.O=C(O)C(F)(F)F (centres undefined)
percent effect: -22.95

Compound: CSCc1noc(CN(C)C(C)c2nc(C)sc2C)n1 (centres undefined)
percent effect: -59.43

Compound: CC(C)CN1CCN(C)C2(CCN(Cc3ccsc3)CC2)C1=O.O=C(O)C(F)(F)F.O=C(O)C(F)(F)F
percent effect: -4.259

Compound: O=C(O)C(F)(F)F.O=C(c1cscn1)N1CCc2ncc(CN3CCCC3)n2CC1
percent effect: -22.62

Compound: COc1c(CNCc2cccnc2N2CCOCC2)c(C)nn1C
percent effect: -30.04

Compound: Cc1nc(N2CCOCC2)nc2c1CCN(Cc1ccsc1)CC2.O=C(O)C(F)(F)F
percent effect: -119.5

Compound: Cc1cc(CN2CCCC(C)(CO)C2)ccc1F (centres undefined)
percent effect: -37.67

Compound: O=C(O)C(F)(F)F.O=C(c1cnccn1)N1CCC(F)(F)C2(CCN(c3ccccn3)C2)C1 (centres undefined)
percent effect: -34.52

Compound: CCOCc1ncn2c1CN(S(=O)(=O)c1ccc(F)cc1)CC2
percent effect: -27.68

Compound: CNc1cc(C2CN(C(=O)c3cscn3)CCO2)nc(C)n1 (centres undefined)
percent effect: -43.16

Compound: CC(C)NC(=O)C1c2c(ncn2C(C)C)CCN1Cc1ccccc1.O=C(O)C(F)(F)F (centres undefined)
percent effect: -14.54

Compound: CC(C)c1noc(-c2ccc(NC(=O)NCC(O)C(C)C)cc2)n1 (centres undefined)
percent effect: 26.07

Compound: CN1CCCC(CNS(=O)(=O)N2CCc3ccccc3C2)C1 (centres undefined)
percent effect: 5.373

Compound: CN(C)[C@H]1CCN(c2nc(C(C)(C)C)nc3c2cnn3C)C1
percent effect: 3.042

Compound: CC(C)N(Cc1ccc(C#N)cc1)C(=O)NCCNc1ncccn1
percent effect: -35.6

Compound: CS(=O)(=O)NCc1ccc2c(c1)CCC2
percent effect: -329.7

Compound: O=C(O)C(F)(F)F.O=C(O)C(F)(F)F.O=C1CCC2(CCCN(Cc3nccs3)C2)N1CC1CC1 (centres undefined)
percent effect: -30.27

Compound: CN(c1ccc(-c2nc(C3CC3)no2)cn1)C1CCOCC1
percent effect: 2.267

Compound: O=C(O)c1cccc(CN2CCC(c3ccnc4ccnn34)CC2)c1
percent effect: -8.361

Compound: O=C(c1cc(Cn2ccc3ccccc32)[nH]n1)N1CCC[C@H]1CO
percent effect: -6.91

Compound: Cc1ccc2c(c1)c(CNC(C)Cn1nc(C)cc1C)nn2C (centres undefined)
percent effect: -22.94

Compound: COc1ccc(CC(=O)N2CCN(Cc3ccco3)C[C@H]2C)cc1OC
percent effect: 3.99

Compound: CC(C)COC(C)C(=O)NCc1ccc(Cn2ccnc2)cc1 (centres undefined)
percent effect: 3.436

Compound: CN1C(=O)CC(c2ccccc2)C12CCN(c1ncc(F)cn1)CC2 (centres undefined)
percent effect: -27.9

Compound: Cc1ccc(C(=O)NS(=O)(=O)c2c(Cl)cccc2Cl)c(=O)[nH]1
percent effect: -19.84

Compound: O=C(CN(CC1CCC1)CC(F)(F)F)N1CCCC1
percent effect: 3.647

Compound: COC(=O)C(CNC(=O)Nc1nncs1)Cc1cccc(C)c1 (centres undefined)
percent effect: -6.684

Compound: CCc1cnc(CNC(=O)NC2CC(C)(C)OC2(C)C)s1 (centres undefined)
percent effect: -31.57

Compound: CN(C(=O)c1cccc(NCC(=O)O)c1)C(C1CC1)C1CC1
percent effect: -8.496

Compound: CN(CCCN1CCCCCC1)C(=O)c1ccccc1NCC(=O)O
percent effect: 2.272

Compound: O=C(NCCn1nc(-n2cncn2)ccc1=O)c1ccc(F)cc1F
percent effect: -26.64

Compound: CNc1ncccc1CN1CCCCC1c1ccnc(N)n1 (centres undefined)
percent effect: -14.27

Compound: CC(=O)Nc1ccc(CNCC(O)c2ccc(Cl)cc2)cc1 (centres undefined)
percent effect: 29.4

Compound: CCn1cnnc1CNC(=O)N(C)Cc1c(F)cccc1Cl
percent effect: -14.12

Compound: CCC(Nc1nnnn1-c1ccccc1)C(=O)Nc1ccccc1C (centres undefined)
percent effect: 2.442

Compound: [H][C@@]12CS(=O)(=O)C[C@]1([H])N(C(=O)c1ccc(Cl)cn1)CCN2CCC
percent effect: -2.841

Compound: CC(C)CN1CC(C(=O)NCCc2c[nH]cn2)CC1=O (centres undefined)
percent effect: 8.21

Compound: Cc1nc(CC2CCCN(Cc3nc(N)c4ccccc4n3)C2)no1 (centres undefined)
percent effect: -42.53

The first 4 entries again:

CN(C)CCC1CCN(c2cc(N3CCCC3CO)ncn2)CC1 (centres undefined) read -62.29%.
CCN1CCC2(CN(C(C)=O)CC23CCN(CC2CC2)CC3)C1=O.O=C(O)C(F)(F)F (centres undefined) read -22.95%.
CSCc1noc(CN(C)C(C)c2nc(C)sc2C)n1 (centres undefined) read -59.43%.
CC(C)CN1CCN(C)C2(CCN(Cc3ccsc3)CC2)C1=O.O=C(O)C(F)(F)F.O=C(O)C(F)(F)F read -4.259%.